Legend:
[1] = tested on: männlichen Ratten der Art Long Evans; type: in vivo; conditions: ratio of peroral LD50 to peroral ED50, rats
Method: Die Untersuchung der therapeutischen Wirkung der erfindungsgemäßen 1,2,4-Triazolderivate wurde mittels des modifizierten Newbould-Prüfversuches (Brit. J. Pharmacol., 21 [1963], Seite 127) durchgeführt. Dazu wurde in die rechen Hinterfüße von männlichen Ratten der Art Long Evans mit Gewichten von 180 bis 250 g intraplantar […] abgetötetes Mycobacterium tuberculosis in einem Volumen von 0,1 ml injiziert. Nachfolgend wurden die Ratten pro betreffenden Tag mit einer Dosis der zu untersuchenden Verbindung insgesamt 16-mal während 3 Wochen behandelt. Die Änderung des Volumens der Fußschwellung wurde 21 Tage lang täglich mit einem Quecksilber-Plethysmometer vom Lence-Typ bestimmt. Vom 10-ten Tag an wurde das Volumen des linken Hinterfußes bestimmt. Die prozentuale Hemmung wurde im Verhältnis zu diesem Volumen aus der eintretenden Änderung in der Schwellung des rechten Hinterfußes berechnet.

in vivo = conditions: rat, po

Question: Which “Therapeu-tischer Index LD50-Wert / ED50-Wert” value [1] does the source give for `COc1ccc2cc([C@H](C)C(=O)O)ccc2c1` [Vergleichs-substanz B, (+)-2-[6'--(Methoxy)-naphth-2'-yl]-propionsäure, reference compound] here?
Answer: 43,4

Question: What about the LD50 (in vivo) of the same molecule?
Answer: 543 mg/kg
